Like-named read-outs stand apart in the source and are kept apart here. At least one structure is not confirmed: it was looked up by name or label, or the drawing left a doubt.
Columns and labels:
[1] = system: L-phenylalanine ammonia-lyase enzyme; experiment: Effect of cinnamate concentration on PAL activity, R. glutinis cells, with or without glycerol (Table I); assay type: biochemical, Rhodotorula glutinis; details: ammonia 6.8 M, pH 11.2, 37° C., cells 90 mg/ml, activity at 60.0 mM cinnamate taken as 100
Description: For conciseness, the following explanation and examples of the present invention are described with respect to L-phenylalanine ammonia-lyase enzyme from Rhodotorula glutinis cells (ATCC 15385) known to catalyze the reversible reaction between trans-cinnamate and an ammonia donor to form L-phenylalanine. To facilitate transport of substrate and product across the cell membrane about 3 to 5 microliters of polyethyleneglycol-p-isooctylphenylether per gram wet weight of cells is preferably added to the microbial cell suspension. It should be understood that the addition of polyethylene glycol-p-isooctylphenylether or other detergents which increase the permeability of cell membranes is not necessary for practice of the present invention.
The effects of increasing cinnamate concentrations on the reactivity of L-phenylalanine ammonia-lyase enzyme with and without the addition of glycerol are shown in Table I.
^(1) glycerol concentration = 2.3 M, ammonia concentration = 6.8 M; p
of the reaction mixture = 11.2; temperature = 37° C.; concentratio
of R. glutinis cells = 90 mg/ml. Enzyme activity at 46.1 mM cinnamate was
^(2) ammonia concentration = 6.8 M; pH of the reaction mixture = 11.2
temperature = 37° C.; concentration of R. glutinis cells = 90
mg/ml. Enzyme activity at 60.0 mM cinnamate was taken as 100.

[2] = system: L-phenylalanine ammonia-lyase; experiment: Effect of pH on rate of L-phenylalanine formation at elevated cinnamate concentrations (Table II); assay type: biochemical; details: no polyhydric alcohol, rate at pH 10.5 taken as 100
[3] = system: L-phenylalanine ammonia-lyase; details: cited from earlier work; for PAL Activity without glycerol: ammonia 15.4% (9 M), pH 10.0, 30° C., interpolated from Japanese Patent SHO 56 [1981]-26197

For `O=C(O)/C=C/c1ccccc1` [Cinnamate, trans-cinnamate], the “PAL Activity without glycerol” value ([1]; 30.0 mM cinnamate) was 47, the “PAL Activity without glycerol” value ([1]; 60.0 mM cinnamate) was 100 and the “PAL Activity without glycerol” value ([1]; 90.0 mM cinnamate) was 70. The “PAL Activity without glycerol” value ([1]; 150.0 mM cinnamate) was 33, the “Relative Rate of L-phenylalanine Formation at pH 11.5 vs. pH 10.5” value (“Relative Rate” for short) ([2]; 68 mM cinnamate) was 45% and the “Relative Rate” value ([2]; 135 mM cinnamate) was 152%. The “Relative Rate” value ([2]; 202 mM cinnamate) was 200%, the “Relative Rate” value ([2]; 270 mM cinnamate) was 125% and the “Relative Rate” value ([2]; 337 mM cinnamate) was 250%. The “PAL Activity without glycerol” value ([3]; 46.1 mM cinnamate) was 100, the “PAL Activity without glycerol” value ([3]; 140.0 mM cinnamate) was 64 and the “PAL Activity without glycerol” value ([3]; 185.0 mM cinnamate) was 33. The “PAL Activity without glycerol” value ([3]; 250.0 mM cinnamate) was 1 and the “Phenylalanine ammonia-lyase activity at 250 mM cinnamate relative to activity at 50 mM” value ([3]; 250 mM versus 50 mM cinnamate, no glycerol, reported heretofore) was “about one”.

From patent US4562151A, “Stabilization of L-phenylalanine ammonia-lyase enzyme” (Monsanto Company, priority 1983, dated 1985)
